Results of single-concentration screens

Chains of the proteins cited; added tags and fusions are not shown. Residues count along the entry.
UniProt Q4DA54, 1-478: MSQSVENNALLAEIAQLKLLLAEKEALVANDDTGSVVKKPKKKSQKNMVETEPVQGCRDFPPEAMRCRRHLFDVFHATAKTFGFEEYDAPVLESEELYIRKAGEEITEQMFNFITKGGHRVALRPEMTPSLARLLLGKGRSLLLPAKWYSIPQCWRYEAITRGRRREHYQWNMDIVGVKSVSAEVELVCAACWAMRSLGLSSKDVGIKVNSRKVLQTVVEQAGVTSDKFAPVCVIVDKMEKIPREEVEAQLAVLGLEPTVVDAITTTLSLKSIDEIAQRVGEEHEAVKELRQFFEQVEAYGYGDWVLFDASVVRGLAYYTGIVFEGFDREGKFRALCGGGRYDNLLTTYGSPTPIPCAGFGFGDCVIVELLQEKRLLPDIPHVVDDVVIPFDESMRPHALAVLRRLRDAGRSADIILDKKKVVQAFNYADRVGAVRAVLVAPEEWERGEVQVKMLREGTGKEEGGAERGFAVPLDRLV
UniProt A4I591, 1-473: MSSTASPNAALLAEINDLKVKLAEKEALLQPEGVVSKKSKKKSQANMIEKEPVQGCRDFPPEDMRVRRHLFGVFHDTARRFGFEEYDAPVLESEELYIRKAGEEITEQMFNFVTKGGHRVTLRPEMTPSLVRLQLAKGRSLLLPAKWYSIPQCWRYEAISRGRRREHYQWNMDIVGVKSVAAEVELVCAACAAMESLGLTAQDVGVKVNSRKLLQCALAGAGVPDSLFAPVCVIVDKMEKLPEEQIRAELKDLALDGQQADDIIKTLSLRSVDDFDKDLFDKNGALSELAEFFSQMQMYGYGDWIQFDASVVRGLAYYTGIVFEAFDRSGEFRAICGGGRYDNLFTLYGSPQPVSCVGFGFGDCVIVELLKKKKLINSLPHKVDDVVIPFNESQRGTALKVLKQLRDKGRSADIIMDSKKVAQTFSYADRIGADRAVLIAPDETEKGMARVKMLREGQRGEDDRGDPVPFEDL
UniProt Q8IDJ8, 1-583: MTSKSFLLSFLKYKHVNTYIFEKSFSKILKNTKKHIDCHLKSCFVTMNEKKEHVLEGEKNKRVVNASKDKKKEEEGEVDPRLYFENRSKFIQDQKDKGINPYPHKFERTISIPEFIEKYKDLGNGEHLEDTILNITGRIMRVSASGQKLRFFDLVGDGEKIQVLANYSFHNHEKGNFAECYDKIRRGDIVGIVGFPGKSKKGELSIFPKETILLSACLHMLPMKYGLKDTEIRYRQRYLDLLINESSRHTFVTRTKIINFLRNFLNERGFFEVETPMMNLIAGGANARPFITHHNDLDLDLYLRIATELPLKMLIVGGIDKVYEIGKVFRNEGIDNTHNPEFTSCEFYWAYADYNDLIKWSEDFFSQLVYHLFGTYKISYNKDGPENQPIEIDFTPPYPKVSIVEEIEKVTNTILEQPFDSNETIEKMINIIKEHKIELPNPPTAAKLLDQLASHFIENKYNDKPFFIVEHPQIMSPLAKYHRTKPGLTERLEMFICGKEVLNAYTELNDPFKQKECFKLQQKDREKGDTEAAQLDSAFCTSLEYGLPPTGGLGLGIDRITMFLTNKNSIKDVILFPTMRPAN
UniProt P9WNZ1, whole entry: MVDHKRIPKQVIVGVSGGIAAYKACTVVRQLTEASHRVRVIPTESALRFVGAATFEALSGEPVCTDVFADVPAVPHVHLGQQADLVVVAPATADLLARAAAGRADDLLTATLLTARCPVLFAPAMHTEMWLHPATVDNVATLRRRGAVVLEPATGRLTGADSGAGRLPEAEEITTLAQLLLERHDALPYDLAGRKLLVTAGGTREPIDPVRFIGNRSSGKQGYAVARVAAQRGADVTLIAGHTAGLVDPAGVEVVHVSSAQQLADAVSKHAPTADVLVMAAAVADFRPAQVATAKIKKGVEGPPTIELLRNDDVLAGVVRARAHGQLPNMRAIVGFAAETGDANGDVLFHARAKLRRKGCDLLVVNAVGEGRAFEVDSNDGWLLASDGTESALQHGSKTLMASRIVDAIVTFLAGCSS

The values are deposited in ChEMBL (CHEMBL3988442, “University of Dundee, Small-Polar-MMV Screening Library” (2021)).

TcHisRS: 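Histidine-tRNA ligase, Trypanosoma cruzi CL Brener (UniProt Q4DA54). Enzyme assay of histidyl-tRNA synthetase; the read-out is not stated. Compounds at 30 µM. Higher reads as stronger inhibition (inferred: compounds with an IC50 in retests scored well above the rest). Size under these conditions: about 69,000 compounds, about 31 of them at 50% or above in at least one test.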
LiHisRS: 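Histidine-tRNA ligase, Leishmania infantum (UniProt A4I591). Enzyme assay of histidyl-tRNA synthetase; the read-out is not stated. Concentration: 30 µM. Direction is inferred from retests: higher values go with stronger inhibition. The assay is labelled LdHisRS but filed under L. infantum. Size under these conditions: about 69,000 compounds, about 410 of them at 50% or above in at least one test.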
Toxoplasma: 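Assay of Toxoplasma gondii numbers, read through their beta-galactosidase reporter with a colour substrate. Compounds at 10 µM. The record gives no direction; the compounds picked for IC50 retests had high values, so higher reads as fewer parasites. Size under these conditions: about 67,000 compounds, about 260 of them at 50% or above in at least one test.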
PfKRS1: 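Lysine-tRNA ligase, Plasmodium falciparum 3D7 (UniProt Q8IDJ8). Enzyme assay of the cytosolic lysyl-tRNA synthetase in 384-well plates, read by luminescence. Tested at 30 µM. Higher reads as stronger inhibition, judged from the few compounds that gave an IC50. About 69,000 compounds were tested under these conditions; 0.071% (about 49) showed 50% or more at least once.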
CoaBC: 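Coenzyme A biosynthesis protein CoaBC, Mycobacterium tuberculosis (UniProt P9WNZ1). Enzyme assay of CoaBC with a phosphate dye (Biomol Green) read at 650 nm. Compounds at 30 µM. Direction is inferred from only a few compounds that gave an IC50; most scored high, so higher reads as stronger inhibition. Most strong results did not repeat in a second test. Of about 67,000 compounds tested this way, about 40 (0.06%) reached 50% or more in at least one test.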

Results are given as percent effect. How 0% and 100% were set is not recorded. Most values in the screen are low, and negative values occur. Compounds were drawn at random from those tested, without regard to their results.

Result for Cc1cc2n(n1)CC(CNC1CCN(CCc3ccccc3)CC1)CN2 (configuration not stated) was TcHisRS: 3.488%; LiHisRS: 13.11%; Toxoplasma: -16.06%; PfKRS1: 0.1224%; CoaBC: -47.21%.
Result for Cc1nc(CN2C[C@@H]3CN(C(=O)c4ccnnc4)C[C@@H]3C2=O)cs1 was TcHisRS: 1.657%; LiHisRS: 7.519%; PfKRS1: -2.596%; CoaBC: -12.08%.
Result for CN(C)CCn1ccc2cc(NC(=O)NCc3ccon3)ccc21 was TcHisRS: -1.538%; LiHisRS: 15.87%; Toxoplasma: 2.856%; PfKRS1: 2.183%; CoaBC: 0.9938%.
Result for O=C(O)C(F)(F)F.[H][C@@]12CCN(Cc3ccccc3)C[C@]1(C(=O)N1CCCO1)CCO2 was Toxoplasma: 0.7479%.
Result for COCCOC[C@]1(CNCc2cccc(OC)c2)C[C@@H](O)[C@@H](O)C1.Cl was Toxoplasma: -9.704%.
Result for COc1ccc(C(=O)CCc2nc(C3CC3)no2)cc1F was TcHisRS: 1.442%; LiHisRS: 17.07%; Toxoplasma: -0.2251%; PfKRS1: 1.71%; CoaBC: 9.796%.
Result for [H][C@@]12C[C@H](NC(=O)c3cc4nc(C)cc(C)n4n3)CN1CCN(C)C2 was Toxoplasma: -15.26%.
Result for Cc1nn(C)cc1C(=O)NC(CC(C)C)C(=O)Nc1cc[nH]n1 (configuration not stated) was TcHisRS: 3.784%; LiHisRS: -2.74%; Toxoplasma: 18.13%; PfKRS1: 0.8841%; CoaBC: -4.091%.
Result for COc1cc(-c2cc(=O)[nH]cn2)cc(OC)c1OC was TcHisRS: -2.26%; LiHisRS: 8.571%; Toxoplasma: -3.931%; PfKRS1: 0.4898%; CoaBC: -3.012%.
Result for COc1ccc(CCNC(=O)NC2CCCC2)cc1OC was TcHisRS: 0%; LiHisRS: 15.38%; Toxoplasma: -4.847%; PfKRS1: 2.128%; CoaBC: -0.6397%.
Result for O=C(O)C(F)(F)F.[H][C@@]12CCN(Cc3cccc(C#N)c3)[C@@]1([H])CC(=O)N2C was Toxoplasma: -11.85%.
Result for Cc1csc2c(C3CCN(CCOc4ccccc4F)CC3)nc(C)n12 was TcHisRS: 2.273%; LiHisRS: -4.225%; Toxoplasma: 1.39%; PfKRS1: 0.5802%; CoaBC: 4.192%.
Result for CS(=O)(=O)N1Cc2ccnn2CC(C(=O)NCc2cccnc2)C1 (configuration not stated) was TcHisRS: 0%; LiHisRS: 9.91%; PfKRS1: 0.08069%; CoaBC: 1.485%.
Result for Nc1cc(-c2ccc(C(=O)O)cc2O)c2cc[nH]c2n1 was TcHisRS: 9.827%; LiHisRS: 27.66%; Toxoplasma: -0.267%; PfKRS1: -4.374%; CoaBC: 5.707%.
Result for O=C(CCc1ccccn1)N1CCCC(N2CCNC2=O)C1 (configuration not stated) was TcHisRS: 6.098%; LiHisRS: 10.84%; Toxoplasma: -16.89%; PfKRS1: 5.825%; CoaBC: 3.418%.
Result for CO[C@@H]1CCN(C(=O)c2cc(C)on2)C[C@@H]1Cc1ccccc1 was TcHisRS: 9.709%; LiHisRS: 11.54%; Toxoplasma: -17.71%; PfKRS1: -2.207%; CoaBC: 1.158%.
Result for CNS(=O)(=O)Cc1cccc(CNc2ccc(Cl)cn2)c1 was TcHisRS: -2.564%; LiHisRS: 14.29%; Toxoplasma: 21.12%; PfKRS1: 4.678%; CoaBC: 2.981%.
Result for Cc1ccccc1S(=O)(=O)NC(=O)CSc1ccc2c(c1)OCCO2 was TcHisRS: 0.813%; LiHisRS: 12.5%; Toxoplasma: -5.292%; PfKRS1: 5.406%; CoaBC: -2.11%.
Result for CC(C)c1nccn1C1CCCN(C(=O)c2ccc3[nH]nnc3c2)C1 (configuration not stated) was TcHisRS: 2.642%; LiHisRS: 24%; Toxoplasma: 11.75%; PfKRS1: 6.856%; CoaBC: -2.564%.
Result for CC(=O)c1c(C)nn(CC(=O)N2Cc3cnc(C(C)(C)C)nc3C2)c1C was TcHisRS: 5.063%; LiHisRS: 16.67%; Toxoplasma: -4.204%; PfKRS1: -1.069%; CoaBC: 0.7212%.
Result for CCc1c(C)nc2n(c1=O)CC(C(=O)Nc1sccc1C(=O)OC)CS2 (configuration not stated) was TcHisRS: 3%; LiHisRS: 10.96%; Toxoplasma: 0.3516%; PfKRS1: 2.44%; CoaBC: -1.186%.